Measured values from patent publication US20150018411A1, “COMPOUNDS AS PPAR BETA/DELTA INHIBITORS FOR TREATING PPAR BETA/DELTA-MEDIATED DISEASES” (PHILIPPS-UNIVERSITAT MARBURG, priority 2011, published 2015).
Some results were stated once for a whole list of compounds, not compound by compound.

How the values were obtained:
ANGPTL4 gene expression [1] = assay: Basal ANGPTL4 expression in primary fibroblasts WI-38; assay type: cell-based; settings: human primary fibroblasts WI-38
ANGPTL4 gene expression [2] = assay: ANGPTL4 gene expression (qPCR) in WPMY-1 myofibroblasts; assay type: cell-based, human; settings: for reduction of relative expression of the ANGPTL4 gene: WPMY-1, 1 μM, 24 hours, compared to DMSO-treated cells; for reduction of basal expression of ANGPTL4: WPMY-1 myofibroblasts, summary statement
Method: (§1) FIG. 5: Influence of the substances of this invention comparative compound (CC) 2, compound 1, compound 5, compound 2 and compound 3 on ANGPTL4 gene expression. • (A) Comparison of relative ANGPTL4 expression, (B) mean inhibitory concentration of substances of this invention. (A) Human myofibroblasts (WPMY-1) are treated for 24 hours with the substances of this invention (1 μM), then RNA is isolated, the cDNA synthesized and analyzed by qPCR, normalized to L27 gene expression. (B) Titration of the effect of substances of this invention on the endogenous ANGPTL4 expression in WPMY-1 cells (left) or peritoneal mouse macrophages (right) after cells have been treated for six hours with the substances of this invention compound 1 and compound 2, respectively; RNA isolation, cDNA synthesis and qPCR as described for (A). The relative expression is calculated in relation to DMSO-treated cells. All values are average values of triplicates (+1-standard deviation). Asterisks (***, **, *) indicate significant differences to DMSO-treated cells (***: p<0.001 after t-test; *: p <0.05).
The influence of substances of this invention on PPAR-beta/delta regulated genes like for example ANGPTL4 which codes for the angiopoietin-like protein ANGPTL4 is assessed in different cells with a confluence of 70% to 80% in a 6-well cell culture plate. For this purpose, cultivated human myofibroblasts (WPMY-1), peritoneal mouse macrophages or cells of the human breast cancer cell line MDA-MB-231 are treated for 24 hours with 1 μM of the substances of this invention. Cells of the breast cancer cell line are in addition stimulated for 6 hours with TGF-beta2 (2 ng/ml) which is commercially available. Subsequently, RNA is isolated from the cells by procedures known to the expert and analyzed by quantitative PCR (qPCR, real time qPCR, RT-qPCR) also known to those skilled in the art. For this, cDNA is synthesized using 0.25 μg to 1 μg of RNA, oligo(dT)-primers and a commercially available cDNA synthesis kit. qPCR is then conducted in a Mx3000P RT-qPCR system (Stratagene, La Jolla, Calif., USA) according to the manufacturer's instructions with 40 cycles, an annealing temperature of 60° C., and for example human ANGPTL4 primers (fw: […]; rv: […]) and the ribosomal I27 (fw: […]; rv: […]) as normalizing gene known to the expert in this field. […] The respective IC50 value (mean inhibitory concentration) for substances of this invention compound 1 and compound 2 is depicted in FIG. 5 B and is maximal 20 nM in WPMY-1 cells and maximal 30 nM in peritoneal mouse macrophages, respectively.

ANGPTL4 gene expression [3] = assay: ANGPTL4 gene expression (qPCR) in peritoneal mouse macrophages; assay type: cell-based; settings: summary statement
Method: as §1
The influence of substances of this invention on PPAR-beta/delta regulated genes like for example ANGPTL4 which codes for the angiopoietin-like protein ANGPTL4 is assessed in different cells with a confluence of 70% to 80% in a 6-well cell culture plate. For this purpose, cultivated human myofibroblasts (WPMY-1), peritoneal mouse macrophages or cells of the human breast cancer cell line MDA-MB-231 are treated for 24 hours with 1 μM of the substances of this invention. Cells of the breast cancer cell line are in addition stimulated for 6 hours with TGF-beta2 (2 ng/ml) which is commercially available. Subsequently, RNA is isolated from the cells by procedures known to the expert and analyzed by quantitative PCR (qPCR, real time qPCR, RT-qPCR) also known to those skilled in the art. […]

Structure (SMILES)	reduction of basal expression of ANGPTL4 (ANGPTL4 gene expression [1])	reduction of relative expression of the ANGPTL4 gene (ANGPTL4 gene expression [2])	reduction of basal expression of ANGPTL4 (ANGPTL4 gene expression [2])	reduction of basal expression of ANGPTL4 (ANGPTL4 gene expression [3])
CCCCCCNc1ccc(NS(=O)(=O)c2ccsc2C(=O)OC)c(OC)c1 [compound 1, methyl 3-(N-(4-(hexylamino)-2-methoxyphenyl)sulfamoyl)thiophene-2-carboxylate]	at least 50%	up to 40%	at least 50%	at least 50%
COC(=O)c1sccc1S(=O)(=O)Nc1ccc(NCCC(C)C)cc1OC [compound 3, methyl 3-(N-(4-(isopentylamino)-2-methoxyphenyl)sulfamoyl)thiophene-2-carboxylate]	at least 50%	up to 40%	at least 50%	at least 50%
CCCCCCNc1ccc(NS(=O)(=O)c2ccsc2C(=O)OC)cc1OC [compound 2, methyl 3-(N-(4-(hexylamino)-3-methoxyphenyl)sulfamoyl)thiophene-2-carboxylate]	at least 50%	up to 40%	at least 50%	at least 50%
